Results are given in words; binding and its absence hold for the method and conditions named. In cells and extracts the contact can be indirect. Some results given as binding are weak or reduced against the parent protein; the word gives no strength. Where a sequence is shown, tags or fusion partners need not be part of it.

One substance from publication PMC7067740 can be followed below.

This test deals with T1, endogenous NDRG2 (N-myc downstream regulated gene 2) (mouse (endogenous in cultured mouse astrocytes and mouse brain)) (UniProt Q9QYG0).
T1 sequence: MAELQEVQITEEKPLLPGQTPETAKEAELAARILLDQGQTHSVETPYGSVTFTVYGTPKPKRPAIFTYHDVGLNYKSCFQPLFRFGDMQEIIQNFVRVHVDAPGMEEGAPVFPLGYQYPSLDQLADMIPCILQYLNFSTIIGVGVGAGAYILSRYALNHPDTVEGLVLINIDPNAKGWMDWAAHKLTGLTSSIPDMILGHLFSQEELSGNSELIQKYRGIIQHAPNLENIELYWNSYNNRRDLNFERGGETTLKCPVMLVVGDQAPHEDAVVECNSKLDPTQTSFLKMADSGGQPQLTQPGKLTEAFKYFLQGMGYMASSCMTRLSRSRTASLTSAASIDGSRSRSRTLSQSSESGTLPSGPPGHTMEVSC
Nature of the test: co-IP; synthetic TAT peptide added to cultured WT astrocytes for 2 h, read out as loss of the endogenous NDRG2-Na+/K+-ATPase β1 co-precipitate (competition); only the binder purified.

For the substance “TAT-β1(244–263) (from UniProt P14094 244-263) (peptide)”, the binding entry was “binds”.
